Values quoted from earlier work as cited in US20180311241A1, “PHARMACEUTICAL SYNERGISTIC COMBINATION” (CADILA HEALTHCARE LIMITED, priority 2015, published 2018).
For at least one compound, name, drawing or mass did not settle the structure.

Tested on: patients with mild to moderate essential hypertension
Conditions: dose of 60 mg to 120 mg, Week 12 of drug administration; cited from earlier work

CCCCc1nc(C)c(CC(=S)N(C)C)c(=O)n1Cc1ccc(-c2ccccc2-c2nnn[nH]2)cc1 [Fimasartan, 2-n-butyl-5-dimethylaminothiocarbonyl-methyl-6-methyl-3-[[2′-(1H-tetrazol-5-yl)biphenyl-4-yl]methyl]pyrimidin-4(3H)-one]
changes in diastolic blood pressure (DBP) in the sitting position: demonstrated antihypertensive effects
